Results taken from PMC11408687.
These are yes or no findings as the source states them, for the method shown. For part of these data: Binding seen in cells or lysates may run through a third protein. Some binding calls cover weakened binding; strength is not graded here. For part of these data: Where a sequence is shown, tags or fusion partners need not be part of it. Blank lines part the entries; values can stand above or below the molecule they belong to.

Chains of the proteins cited; added tags and fusions are not shown. Lines headed by an entry give the natural chain unless they say otherwise; changes in a name come on top. Residues count along the entry.
UniProt Q02248: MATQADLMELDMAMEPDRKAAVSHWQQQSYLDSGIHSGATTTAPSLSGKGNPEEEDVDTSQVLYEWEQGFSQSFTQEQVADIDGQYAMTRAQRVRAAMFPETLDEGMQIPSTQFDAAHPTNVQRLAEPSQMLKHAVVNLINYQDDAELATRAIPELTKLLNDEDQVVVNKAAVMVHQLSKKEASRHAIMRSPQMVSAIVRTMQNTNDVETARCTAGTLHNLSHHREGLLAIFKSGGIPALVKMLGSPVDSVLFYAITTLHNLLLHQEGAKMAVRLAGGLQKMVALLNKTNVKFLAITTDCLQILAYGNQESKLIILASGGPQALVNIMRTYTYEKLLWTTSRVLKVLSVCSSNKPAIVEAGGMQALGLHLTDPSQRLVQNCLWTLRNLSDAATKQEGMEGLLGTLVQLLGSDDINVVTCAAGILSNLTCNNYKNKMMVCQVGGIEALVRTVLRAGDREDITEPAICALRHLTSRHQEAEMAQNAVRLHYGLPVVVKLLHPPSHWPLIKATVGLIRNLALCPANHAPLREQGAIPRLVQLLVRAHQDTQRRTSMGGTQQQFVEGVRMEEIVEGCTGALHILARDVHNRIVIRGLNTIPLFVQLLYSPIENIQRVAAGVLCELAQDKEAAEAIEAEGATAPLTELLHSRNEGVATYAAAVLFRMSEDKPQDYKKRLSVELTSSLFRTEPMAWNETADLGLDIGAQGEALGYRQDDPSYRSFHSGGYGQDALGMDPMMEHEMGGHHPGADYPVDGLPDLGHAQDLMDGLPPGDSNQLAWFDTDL
UniProt Q91VN0, residues 31-1614: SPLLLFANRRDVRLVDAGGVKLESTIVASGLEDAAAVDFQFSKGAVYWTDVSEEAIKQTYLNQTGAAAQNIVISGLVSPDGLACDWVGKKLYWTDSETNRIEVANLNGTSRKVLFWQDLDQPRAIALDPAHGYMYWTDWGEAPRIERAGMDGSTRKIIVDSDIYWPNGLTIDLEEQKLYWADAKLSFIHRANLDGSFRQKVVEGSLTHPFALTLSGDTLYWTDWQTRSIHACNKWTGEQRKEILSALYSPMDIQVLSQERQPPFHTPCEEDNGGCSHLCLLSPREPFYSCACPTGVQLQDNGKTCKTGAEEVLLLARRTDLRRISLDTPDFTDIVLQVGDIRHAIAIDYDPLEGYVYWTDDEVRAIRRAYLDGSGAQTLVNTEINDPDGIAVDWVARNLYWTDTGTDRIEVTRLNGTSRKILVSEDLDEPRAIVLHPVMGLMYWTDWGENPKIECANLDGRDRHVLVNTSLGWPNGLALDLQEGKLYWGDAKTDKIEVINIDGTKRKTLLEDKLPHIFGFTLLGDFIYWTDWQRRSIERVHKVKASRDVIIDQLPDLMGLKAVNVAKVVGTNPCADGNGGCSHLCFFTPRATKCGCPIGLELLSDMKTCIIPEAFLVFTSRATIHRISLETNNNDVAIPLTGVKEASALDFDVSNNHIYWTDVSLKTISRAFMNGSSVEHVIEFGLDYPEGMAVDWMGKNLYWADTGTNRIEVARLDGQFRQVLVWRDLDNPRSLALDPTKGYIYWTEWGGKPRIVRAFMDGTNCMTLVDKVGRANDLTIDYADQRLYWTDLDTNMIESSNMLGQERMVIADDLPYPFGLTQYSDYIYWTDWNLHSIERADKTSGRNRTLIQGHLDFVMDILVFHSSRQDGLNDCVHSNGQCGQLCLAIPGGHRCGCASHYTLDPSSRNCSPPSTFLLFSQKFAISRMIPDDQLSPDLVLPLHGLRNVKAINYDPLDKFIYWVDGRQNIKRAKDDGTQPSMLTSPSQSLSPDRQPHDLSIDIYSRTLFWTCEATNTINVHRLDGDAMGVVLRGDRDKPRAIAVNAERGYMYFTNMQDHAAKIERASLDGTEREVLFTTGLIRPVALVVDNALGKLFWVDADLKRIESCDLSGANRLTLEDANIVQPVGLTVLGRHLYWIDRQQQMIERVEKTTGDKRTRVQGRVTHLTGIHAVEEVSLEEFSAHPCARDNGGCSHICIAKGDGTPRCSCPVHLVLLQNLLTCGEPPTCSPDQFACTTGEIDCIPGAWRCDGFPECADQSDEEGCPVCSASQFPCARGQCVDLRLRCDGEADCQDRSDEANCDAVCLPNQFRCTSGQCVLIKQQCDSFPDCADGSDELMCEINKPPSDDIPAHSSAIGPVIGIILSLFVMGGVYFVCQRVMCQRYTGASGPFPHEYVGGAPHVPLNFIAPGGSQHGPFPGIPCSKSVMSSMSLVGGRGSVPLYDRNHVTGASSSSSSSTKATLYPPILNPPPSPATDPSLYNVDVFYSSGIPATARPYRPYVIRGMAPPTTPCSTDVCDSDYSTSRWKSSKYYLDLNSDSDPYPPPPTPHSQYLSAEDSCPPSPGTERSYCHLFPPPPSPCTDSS
UniProt O75197: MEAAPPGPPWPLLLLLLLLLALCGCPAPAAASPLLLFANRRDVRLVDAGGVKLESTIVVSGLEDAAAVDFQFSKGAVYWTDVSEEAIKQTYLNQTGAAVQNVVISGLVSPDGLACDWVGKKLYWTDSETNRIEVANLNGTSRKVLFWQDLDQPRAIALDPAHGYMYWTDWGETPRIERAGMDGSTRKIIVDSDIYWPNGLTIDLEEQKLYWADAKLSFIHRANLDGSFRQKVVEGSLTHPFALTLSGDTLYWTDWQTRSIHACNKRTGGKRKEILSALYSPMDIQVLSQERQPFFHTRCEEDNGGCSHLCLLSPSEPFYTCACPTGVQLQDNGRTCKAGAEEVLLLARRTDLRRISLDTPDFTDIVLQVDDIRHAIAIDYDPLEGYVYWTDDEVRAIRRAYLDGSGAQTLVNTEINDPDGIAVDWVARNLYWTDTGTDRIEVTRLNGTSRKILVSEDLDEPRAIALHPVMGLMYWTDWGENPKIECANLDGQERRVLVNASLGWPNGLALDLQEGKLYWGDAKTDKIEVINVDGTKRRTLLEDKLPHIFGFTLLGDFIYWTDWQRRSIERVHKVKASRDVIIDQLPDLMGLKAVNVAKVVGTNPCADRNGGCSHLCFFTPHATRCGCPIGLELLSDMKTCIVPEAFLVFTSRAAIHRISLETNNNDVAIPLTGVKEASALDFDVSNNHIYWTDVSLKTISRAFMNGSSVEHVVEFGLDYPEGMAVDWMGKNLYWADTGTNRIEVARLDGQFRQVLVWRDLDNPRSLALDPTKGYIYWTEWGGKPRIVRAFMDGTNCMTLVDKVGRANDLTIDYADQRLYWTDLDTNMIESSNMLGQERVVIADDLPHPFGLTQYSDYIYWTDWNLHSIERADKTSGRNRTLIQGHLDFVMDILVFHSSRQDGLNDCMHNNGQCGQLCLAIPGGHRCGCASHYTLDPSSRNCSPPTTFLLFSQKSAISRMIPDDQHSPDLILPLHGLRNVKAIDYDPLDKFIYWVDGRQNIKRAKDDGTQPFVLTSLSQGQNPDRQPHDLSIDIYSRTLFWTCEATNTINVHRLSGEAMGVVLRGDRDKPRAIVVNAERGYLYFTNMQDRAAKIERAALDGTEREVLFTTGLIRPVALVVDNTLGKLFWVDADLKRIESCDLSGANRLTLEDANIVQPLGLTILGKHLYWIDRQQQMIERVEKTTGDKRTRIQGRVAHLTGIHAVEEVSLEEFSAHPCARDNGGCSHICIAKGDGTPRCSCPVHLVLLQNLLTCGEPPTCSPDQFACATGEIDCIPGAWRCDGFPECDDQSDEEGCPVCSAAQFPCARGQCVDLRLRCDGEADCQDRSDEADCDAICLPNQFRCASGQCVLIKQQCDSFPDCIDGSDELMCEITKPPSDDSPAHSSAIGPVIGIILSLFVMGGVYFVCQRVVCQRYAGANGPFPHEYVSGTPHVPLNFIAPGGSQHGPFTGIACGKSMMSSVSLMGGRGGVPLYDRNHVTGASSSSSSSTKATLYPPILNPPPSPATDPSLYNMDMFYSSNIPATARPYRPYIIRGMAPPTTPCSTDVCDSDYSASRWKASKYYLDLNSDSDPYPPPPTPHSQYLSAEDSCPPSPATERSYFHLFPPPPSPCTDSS
UniProt P35222: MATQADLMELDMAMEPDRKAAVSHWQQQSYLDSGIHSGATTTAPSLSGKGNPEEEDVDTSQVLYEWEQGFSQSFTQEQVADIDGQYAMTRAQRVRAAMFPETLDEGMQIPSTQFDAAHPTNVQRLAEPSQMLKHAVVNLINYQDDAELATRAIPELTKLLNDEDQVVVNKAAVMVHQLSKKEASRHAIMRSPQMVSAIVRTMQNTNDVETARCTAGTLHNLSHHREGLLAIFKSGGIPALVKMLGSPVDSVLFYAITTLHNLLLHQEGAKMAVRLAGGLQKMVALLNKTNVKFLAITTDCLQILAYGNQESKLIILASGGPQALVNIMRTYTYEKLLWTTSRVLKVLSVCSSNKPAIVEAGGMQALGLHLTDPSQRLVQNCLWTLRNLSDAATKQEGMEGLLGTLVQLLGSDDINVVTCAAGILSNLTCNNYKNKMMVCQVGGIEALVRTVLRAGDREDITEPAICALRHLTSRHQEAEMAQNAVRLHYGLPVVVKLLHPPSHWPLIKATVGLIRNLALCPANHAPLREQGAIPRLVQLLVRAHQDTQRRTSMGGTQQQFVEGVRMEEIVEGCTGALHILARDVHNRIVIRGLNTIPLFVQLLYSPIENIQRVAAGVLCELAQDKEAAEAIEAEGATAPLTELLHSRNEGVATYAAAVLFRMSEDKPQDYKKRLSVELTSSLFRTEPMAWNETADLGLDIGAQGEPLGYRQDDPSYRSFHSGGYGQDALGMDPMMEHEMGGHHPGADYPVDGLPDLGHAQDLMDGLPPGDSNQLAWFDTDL

Columns and labels:
[1] = target: T1, GST-MANF fusion protein (UniProt P55145); experiment: pull-down; GST-tag fusion protein immobilised on glutathione Sepharose beads, purified His-tag protein added, 4 °C; GST as negative control; Coomassie staining and immunoblotting; both purified
T1 sequence: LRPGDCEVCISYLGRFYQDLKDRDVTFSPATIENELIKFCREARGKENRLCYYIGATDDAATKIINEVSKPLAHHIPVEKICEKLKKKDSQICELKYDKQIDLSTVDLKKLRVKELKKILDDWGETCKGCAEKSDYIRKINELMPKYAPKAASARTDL

[2] = target: T2, Mesencephalic astrocyte-derived neurotrophic factor (MANF), endogenous in mouse liver (mouse (endogenous in liver tissue)) (UniProt Q9CXI5); experiment: co-IP; mouse liver tissue after 2/3 PH homogenised in IP lysis buffer; antibody on protein A/G agarose beads, overnight at 4 °C; isotype IgG as negative control; immunoblotting
T2 sequence: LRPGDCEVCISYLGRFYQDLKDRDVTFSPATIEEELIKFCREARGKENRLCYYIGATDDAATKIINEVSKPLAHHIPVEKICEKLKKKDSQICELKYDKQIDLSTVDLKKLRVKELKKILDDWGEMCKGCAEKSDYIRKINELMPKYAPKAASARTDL

[3] = target: β-catenin, endogenous in mouse liver (mouse (endogenous in liver tissue)) (UniProt Q02248); experiment: as above
[4] = target: Low-density lipoprotein receptor-related protein 5 (LRP5), endogenous in mouse liver (mouse (endogenous in liver tissue)) (UniProt Q91VN0); experiment: as above
[5] = target: GST-LRP5-N fusion protein (extracellular domain of LRP5) (UniProt O75197); experiment: pull-down; GST-tag fusion protein immobilised on glutathione Sepharose beads, purified His-tag protein added, 4 °C; GST as negative control; Coomassie staining and immunoblotting; both purified

Molecule: His-β-catenin fusion protein (from UniProt P35222 1-781)
binding [1]: binds

Molecule: His-LRP5-N fusion protein (extracellular domain of LRP5) (from UniProt O75197 32-1384) (domain or fragment)
binding [1]: binds

B2: His-MANF fusion protein (protein, UniProt P55145 25-182)
chain: LRPGDCEVCISYLGRFYQDLKDRDVTFSPATIENELIKFCREARGKENRLCYYIGATDDAATKIINEVSKPLAHHIPVEKICEKLKKKDSQICELKYDKQIDLSTVDLKKLRVKELKKILDDWGETCKGCAEKSDYIRKINELMPKYAPKAASARTDL
binding [5]: binds

Second part, the molecule after the results:

binding [2]: binds
Molecule: β-catenin, endogenous in mouse liver (from UniProt Q02248 1-781)

binding [3]: binds | binding [4]: binds
B1: Mesencephalic astrocyte-derived neurotrophic factor (MANF), endogenous in mouse liver (protein, UniProt Q9CXI5 22-179)
chain: LRPGDCEVCISYLGRFYQDLKDRDVTFSPATIEEELIKFCREARGKENRLCYYIGATDDAATKIINEVSKPLAHHIPVEKICEKLKKKDSQICELKYDKQIDLSTVDLKKLRVKELKKILDDWGEMCKGCAEKSDYIRKINELMPKYAPKAASARTDL
